Results published in the supplement of paper PMC8104966.
Counter-ions that a name gives are not always drawn. Some of the results follow. This data set is noisy: repeats of one test often differ as much as different tests do.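 U2OS cells carrying ACE2 were mixed with U2OS cells carrying full-length spike, and fusion was scored by imaging as the share of nuclei showing both cell types' fluorescent markers. A compound counts as an inhibitory hit when it is non-toxic and its fusion z-score falls below -3, meaning more than three standard deviations below the plate's DMSO wells.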

The compounds below were run on U2OS ACE2 x SARS-CoV-2 spike co-culture (assay: cell-cell fusion (fraction fused) z-score vs plate DMSO control; higher = more fusion). Details: 30 µM; 5 h; toxicity class: non-toxic, passed QC.

SMILES	cell-cell fusion (z-score)
CCC(C)C(=O)O[C@@H]1C[C@@]2(C)[C@H](c3ccoc3)OC(=O)CC23OC2(C)OC34[C@H](OC(=O)C(C)C)[C@@]3(O)[C@@H](OC(=O)C5(C)OC5C)[C@@]5(C)C[C@]3(O)[C@@](C)([C@H]5CC(=O)OC)C14O2 (stereo not given in full)	inactive: 3.3
CC(=O)[C@@]12O[C@@H]1CC1C3CC=C4C[C@@H](O)CC[C@]4(C)C3CC[C@@]12C (stereo not given in full)	inactive: 2.43
O=C1N=C(O)NC1(c1ccccc1)c1ccccc1 [5,5-Diphenylhydantoin]	inactive: 3.39
Nc1ncnc2c1ncn2[C@@H]1O[C@H](COP(=O)([O-])OP(=O)([O-])OP(=O)([O-])OP(=O)(O)OC[C@@H]2O[C@H](n3cnc4c(N)ncnc43)C(O)[C@@H]2O)[C@H](O)C1O.[NH4+].[NH4+].[NH4+] (stereo not given in full) [P1,P4-Di(adenosine-5')tetraphosphate triammonium]	inactive: -1.39
CN1CCN(C2CCN(C(=O)Nc3cc(Oc4ccc(NC(=O)C5(C(=O)Nc6ccc(F)cc6)CC5)c(F)c4)ccn3)CC2)CC1 [Golvatinib (E7050)]	inactive: 2.33
Br.CCCN1CCc2cc(O)cc3c2[C@H]1Cc1ccc(O)c(O)c1-3 [R(-)-2,10,11-Trihydroxy-N-propylnoraporphine hydrobromide]	inactive: -2.57
NC(=O)C1=CN(C2OC(COP(=O)([O-])OP(=O)([O-])OC[C@H]3O[C@@H](n4cnc5c(N)ncnc54)C(OP(=O)([O-])[O-])[C@H]3O)C(O)C2O)C=CC1.[Na+].[Na+].[Na+].[Na+] (stereo not given in full) [NADPH tetrasodium]	inactive: 1.38
COc1ccc(OC)c(C(O)C(C)N)c1.Cl (stereo not given) [Methoxamine hydrochloride]	inactive: 3.39
Cl.N[C@@H]1CCCCN(c2c(F)cc3c(=O)c(C(=O)O)cn(C4CC4)c3c2Cl)C1 [Besifloxacin HCl]	inactive: 2.47
Cc1cccc(Nc2ccccc2C(=O)O)c1C [Mefenamic acid]	inactive: 2.61
COc1cc(OC)c2c(c1Cl)OC1(C2=O)C(O)=CC(=O)CC1C (stereo not given)	inactive: 2.05
Cc1cc(O)ccc1Cl	inactive: 0.679
O[C@H]1[C@H](O)[C@@H](O)[C@H](O)[C@@H](O)[C@H]1O	inactive: 1.73
CN(C)CCC[C@@]1(c2ccc(F)cc2)OCc2cc(C#N)ccc21.O=C(O)C(=O)O	inactive: 1.99
O=C(c1cc(Cc2n[nH]c(=O)c3ccccc23)ccc1F)N1CCN(C(=O)C2CC2)CC1 [Olaparib]	inactive: 2.09
C=CC(=O)Nc1cccc(Oc2nc(Nc3ccc(N4CCN(C)CC4)cc3OC)ncc2Cl)c1	inactive: 0.861
CC1=C2C[C@@H]3[C@@H](CC=C4C[C@@H](O)CC[C@@]43C)[C@@H]2CC[C@@]12O[C@@H]1C[C@H](C)CN[C@H]1[C@@H]2C [Cyclopamine]	inactive: 0.785
C[C@@H]1CC[C@@]2(OC1)OC1CC3C4CC=C5C[C@@H](O)CC[C@]5(C)C4CC[C@]3(C)C1[C@@H]2C (stereo not given in full)	inactive: 1.75
CC1(C)C2CC(=O)[C@]3(C)C(CC[C@@]4(C)[C@H](c5ccoc5)OC(=O)C5OC543)[C@@]2(C)[C@@H](O)C[C@H]1O (stereo not given in full)	inactive: 3.12
CC1=C(C(=O)Nc2cc3cn[nH]c3cc2F)C(c2ccc(C(F)(F)F)cc2)CC(=O)N1 (stereo not given)	inactive: 1.86
CC(Cc1cccc(C(F)(F)F)c1)NCCOC(=O)c1ccccc1.Cl (stereo not given)	inactive: 3.49
O=C([O-])[C@H](O)[C@@H](O)[C@H](O)[C@H](O)CO.[Na+] [Sodium gluconate]	inactive: 2.89
CSc1ccc(C(=O)c2[nH]c(=O)[nH]c2C)cc1 [Enoximone]	inactive: 2.18
O=c1c(O)c(-c2ccccc2)oc2ccccc12	inactive: 0.413

SMILES	cell-cell fusion (z-score)
Sc1nc2ccccc2s1	inactive: 1.75
CCN1C(=O)C=CC1=O [N-Ethylmaleimide]	inactive: 1.42
C[C@]12CCC(=O)C[C@@H]1CC[C@@H]1[C@@H]2CC[C@]2(C)C(=O)CC[C@@H]12 [5alpha-ANDROSTAN-3,17-DIONE]	inactive: 1.88
Cc1ccc2c(Cl)cc(Cl)c(O)c2n1	inactive: 1.15
Cl.N=C(N)NC(=O)c1nc(Cl)c(N)nc1N.O.O [Amiloride hydrochloride dihydrate]	inactive: 2.14
C=CC(C1=CC(=O)C(OC)=CC1=O)c1ccc(O)cc1 (stereo not given)	inactive: 1.82
O=C(N/N=C/c1ccc([N+](=O)[O-])o1)c1ccc(O)cc1	inactive: -0.595
COC(=O)/C=C/C(=O)OC [Dimethyl fumarate]	inactive: 0.829
COc1cc(N)c(Cl)cc1C(=O)N[C@@H]1CCN(CCCOc2ccc(F)cc2)C[C@@H]1OC [Cisapride]	inactive: 1.36
CO/N=C1/C[C@]2(C[C@@H]3C[C@@H](C/C=C(\C)C[C@@H](C)/C=C/C=C4\CO[C@H]5[C@H](O)C(C)=C[C@@H](C(=O)O3)[C@]45O)O2)O[C@H](/C(C)=C/C(C)C)[C@H]1C [Moxidectin]	active: -5.74
CCCCCCCCCCCCCCC[C@H](O)[C@H](N)CO (racemic) [DL-erythro-Dihydrosphingosine]	inactive: 3.11
CC1CC[C@@]23CC[C@]4(C)[C@@](CCC5[C@@]6(C)CCC(=O)C(C)(C)C6CC[C@]54C)(OC2=O)C3C1C (stereo not given in full)	inactive: 1.86
CC(=O)Oc1cccc(C(=O)O)c1OC(C)=O	inactive: -1.06
Br.Cc1cccc(C2CN(C)CCc3c2cc(O)c(O)c3Cl)c1 (stereo not given)	inactive: -2.35
CN1CCC(=C2c3ccccc3CC(=O)c3sccc32)CC1.O=C(O)/C=C/C(=O)O [Ketotifen fumarate]	inactive: 2.73
C[C@]12CC[C@@H]3c4ccc(O)cc4CC[C@H]3[C@@H]1CC[C@@H]2O [beta-Estradiol]	inactive: 3.37
Cc1ccc(C(=O)c2ccc(CC(=O)O)n2C)cc1 [Tolmetin]	inactive: -0.174
CNC[C@H](O)c1cccc(O)c1.Cl	inactive: -1.91
Cl.Cl.NCCNCCNCCN	inactive: 0.735
CC1=C(CC(=O)O)c2cc(F)ccc2/C1=C\c1ccc(S(C)(=O)=O)cc1 [Sulindac sulfone]	inactive: 1.26
CC(C)CCCC(C)C1CCC2C3=CC[C@H]4C[C@@H](O)CC[C@]4(C)C3CC[C@@]21C (stereo not given in full)	inactive: 2.32
CCN(CC)C(=O)/C(C#N)=C/c1cc(O)c(O)c([N+](=O)[O-])c1 [Entacapone]	inactive: 2.29
CCS(=O)(=O)Nc1cccc(C(=C2CCCCC2)c2cnc[nH]2)c1	inactive: 0.622
CC(=O)C1CCC2C3CC=C4CC(OS(=O)(=O)[O-])CC[C@]4(C)C3CC[C@]12C.[Na+] (stereo not given in full)	inactive: 2.74

SMILES	cell-cell fusion (z-score)
Nc1cc(-c2ccncc2)c[nH]c1=O	inactive: 2.85
CN1CC(=O)N=C1NC(=O)Nc1cccc(Cl)c1 [Fenobam]	inactive: 2.64
CC(C)c1cc(C(C)C)c(CC(=O)NS(=O)(=O)Oc2c(C(C)C)cccc2C(C)C)c(C(C)C)c1 [Avasimibe]	inactive: 3.28
COc1cc2c(cc1OC)C1(O)C(=O)c3ccc(O)c(C(=O)O)c3OC1CO2 (stereo not given)	inactive: 1.35
Cl.NNCc1ccccc1	inactive: 1.98
CN1CCC(OC(c2ccccc2)c2ccccc2)CC1.Cl [Diphenylpyraline hydrochloride]	inactive: 2.43
CC1(C)O[C@@H]2[C@@H](CO[C@@]3(COS(N)(=O)=O)OC(C)(C)O[C@@H]23)O1	inactive: 0.619
Cl.Cl.NCCc1c[nH]cn1 [Histamine dihydrochloride]	inactive: 2.72
Cl.Cl.NCCc1c[nH]cn1	inactive: -1.68
NC(=O)c1cc([N+](=O)[O-])cc([N+](=O)[O-])c1	inactive: 1.23
NC[C@H](O)c1ccc(O)c(O)c1.O.O=C(O)C(O)C(O)C(=O)O [Noradrenaline bitartrate]	inactive: -0.819
Cc1cc([C@@H]2CCCN2C)on1.Cl [ABT-418 hydrochloride]	inactive: 0.843
Nc1nc(Cl)nc2c1ncn2[C@H]1C[C@H](O)[C@@H](CO)O1 [Cladribine]	inactive: 0.0845
C=CCCCCCCCCCCCc1ccco1	inactive: 1.82
Nc1c2ccccc2nc2ccccc12	inactive: 0.441
COc1ccc(CCNc2nc(N3CCc4cc(OC)c(OC)cc4C3)c3cc(OC)c(OC)cc3n2)cc1OC.Cl	inactive: -2.49
CC1=C(/C=C/C(C)=C/C=C/C(C)=C\C(=O)O)C(C)(C)CCC1 [Isotretinoin]	inactive: 3.54
C=C1C[C@@H]2[C@@H](CC[C@@]3(C)C(=O)CC[C@@H]23)[C@@]2(C)C=CC(=O)C=C12 [Exemestane]	inactive: 2.38
CC1(C)O[C@]2(C)CC[C@H]1CC2	inactive: -0.887
CC(=O)Oc1ccccc1C(=O)O [Aspirin]	inactive: 3.71
Cl.OC(CCN1CCCCC1)(c1ccccc1)C1CCCCC1 (racemic) [DL-trihexyphenidyl hydrochloride]	inactive: 2.48
Cn1c(=O)[nH]c(=O)c2nc[nH]c21	inactive: 4.47
